This passage reports binding results from PMC6938514.

No constants are given. Whether binding was seen depends on the method and setting.

This test addresses 6xHis-KFL_(PYK2) (UniProt Q14289). Put plainly: MST; 6xHis-tagged protein labelled with HisTag Ni-NTA dye, 0.05 uM; the same protein serially diluted from 200 uM; 20 mM HEPES pH 7.5, 150 mM NaCl, 1 mM DTT, 0.05% Tween-20; 25 °C; both purified.

On to “6xHis-KFL_(PYK2) (from UniProt Q14289 790-839) (domain or fragment)”, for which the binding entry is on record as “no binding (tested: 200 μM)”.
